Some of the results follow.
Experiments:
Assay in all cases: log2 fold change, soluble protein after heating vs DMSO (PISA); higher = thermal stabilisation; K562 lysate, 10 uM; active = over 0.2 and 3.5 SD of the protein, either way, in both replicates (recomputed)
ibrutinib = compound: C=CC(=O)N1CCC[C@@H](n2nc(-c3ccc(Oc4ccccc4)cc3)c3c(N)ncnc32)C1 [ibrutinib]
Procedure, shortened: (§1)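 Quantification was by TMTpro 16plex LC-MS/MS with equalised channel sums, applied to the supernatant after 21,000xg for 90 min. Samples were crude K562 extract at 1 mg/mL protein in PBS pH 7.4 with 1 mM MgCl2, treated with 10 μM compound for 30 min, heated for 3 min across 48°C-58°C, pooled and brought to 0.5% NP-40 at 4°C. Values are log-two fold changes in thermal stability relative to solvent controls, from duplicates.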

Protein sequences, listed by entry. Tags and fused reporters are not part of them. Lines headed by an entry give the natural chain unless they say otherwise; changes in a name come on top.
UniProt Q16643: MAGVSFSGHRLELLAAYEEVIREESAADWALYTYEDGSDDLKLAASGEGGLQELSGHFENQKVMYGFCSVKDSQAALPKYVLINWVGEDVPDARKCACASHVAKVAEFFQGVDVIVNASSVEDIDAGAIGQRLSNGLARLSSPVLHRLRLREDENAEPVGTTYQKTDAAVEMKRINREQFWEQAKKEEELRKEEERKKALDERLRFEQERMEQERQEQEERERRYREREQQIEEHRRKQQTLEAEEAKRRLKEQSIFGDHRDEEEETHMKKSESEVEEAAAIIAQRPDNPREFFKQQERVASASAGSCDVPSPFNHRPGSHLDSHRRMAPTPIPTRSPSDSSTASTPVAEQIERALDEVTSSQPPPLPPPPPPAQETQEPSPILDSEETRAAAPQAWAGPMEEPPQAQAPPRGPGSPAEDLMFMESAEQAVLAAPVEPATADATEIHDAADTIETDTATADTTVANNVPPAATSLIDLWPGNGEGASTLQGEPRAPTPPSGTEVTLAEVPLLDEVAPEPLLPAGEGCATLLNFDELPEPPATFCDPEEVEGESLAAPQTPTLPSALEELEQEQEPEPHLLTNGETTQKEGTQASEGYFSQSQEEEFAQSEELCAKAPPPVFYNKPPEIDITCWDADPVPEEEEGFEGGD
UniProt Q9H8H2: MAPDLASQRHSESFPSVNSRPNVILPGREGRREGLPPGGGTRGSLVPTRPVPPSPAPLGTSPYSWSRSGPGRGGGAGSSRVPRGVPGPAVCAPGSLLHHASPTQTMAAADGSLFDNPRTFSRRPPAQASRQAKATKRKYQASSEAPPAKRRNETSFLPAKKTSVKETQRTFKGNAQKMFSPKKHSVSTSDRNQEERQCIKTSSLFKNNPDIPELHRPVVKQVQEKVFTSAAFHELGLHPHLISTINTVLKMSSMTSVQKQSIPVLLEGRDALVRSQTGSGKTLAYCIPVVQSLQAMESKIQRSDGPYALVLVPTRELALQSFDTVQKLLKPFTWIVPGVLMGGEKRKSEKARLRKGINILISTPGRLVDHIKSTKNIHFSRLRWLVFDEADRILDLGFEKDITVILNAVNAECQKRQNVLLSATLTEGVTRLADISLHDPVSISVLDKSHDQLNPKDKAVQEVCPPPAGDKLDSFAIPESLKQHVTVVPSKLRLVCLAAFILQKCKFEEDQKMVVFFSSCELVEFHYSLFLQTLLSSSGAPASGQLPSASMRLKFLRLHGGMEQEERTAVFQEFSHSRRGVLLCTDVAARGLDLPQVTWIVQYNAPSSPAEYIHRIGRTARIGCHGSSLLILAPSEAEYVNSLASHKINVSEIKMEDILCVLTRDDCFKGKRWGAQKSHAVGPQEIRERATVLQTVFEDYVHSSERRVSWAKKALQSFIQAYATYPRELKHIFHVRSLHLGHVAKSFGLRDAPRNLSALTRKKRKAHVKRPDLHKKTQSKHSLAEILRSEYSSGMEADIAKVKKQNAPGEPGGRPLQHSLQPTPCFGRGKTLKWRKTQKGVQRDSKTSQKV
UniProt Q8NA75: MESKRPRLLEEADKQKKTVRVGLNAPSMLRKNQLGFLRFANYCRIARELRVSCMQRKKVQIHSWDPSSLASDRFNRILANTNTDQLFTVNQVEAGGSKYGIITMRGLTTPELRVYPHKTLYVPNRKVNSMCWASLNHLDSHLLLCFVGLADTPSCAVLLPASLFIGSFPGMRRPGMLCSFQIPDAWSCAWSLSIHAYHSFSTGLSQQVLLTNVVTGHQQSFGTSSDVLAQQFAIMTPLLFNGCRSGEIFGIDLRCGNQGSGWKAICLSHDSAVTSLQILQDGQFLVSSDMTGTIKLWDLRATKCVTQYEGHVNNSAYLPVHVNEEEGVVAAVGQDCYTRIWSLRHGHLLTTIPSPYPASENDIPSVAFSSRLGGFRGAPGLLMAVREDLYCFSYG
UniProt Q9Y315: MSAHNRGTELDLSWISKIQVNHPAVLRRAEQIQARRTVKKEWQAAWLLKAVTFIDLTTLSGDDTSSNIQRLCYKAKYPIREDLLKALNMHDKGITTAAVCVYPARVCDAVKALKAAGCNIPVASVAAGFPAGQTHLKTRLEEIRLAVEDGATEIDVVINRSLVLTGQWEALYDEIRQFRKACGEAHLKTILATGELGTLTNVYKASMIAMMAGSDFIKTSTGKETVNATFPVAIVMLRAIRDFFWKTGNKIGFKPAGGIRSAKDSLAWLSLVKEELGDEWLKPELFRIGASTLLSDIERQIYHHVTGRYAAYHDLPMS
UniProt O95865: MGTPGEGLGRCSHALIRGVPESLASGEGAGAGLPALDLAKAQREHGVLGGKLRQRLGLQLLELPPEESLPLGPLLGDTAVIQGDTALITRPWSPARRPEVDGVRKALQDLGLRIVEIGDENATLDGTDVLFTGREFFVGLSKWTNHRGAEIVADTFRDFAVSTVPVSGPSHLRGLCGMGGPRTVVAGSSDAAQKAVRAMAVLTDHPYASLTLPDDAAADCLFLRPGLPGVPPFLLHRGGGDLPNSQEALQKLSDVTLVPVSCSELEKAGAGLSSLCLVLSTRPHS
UniProt P51397: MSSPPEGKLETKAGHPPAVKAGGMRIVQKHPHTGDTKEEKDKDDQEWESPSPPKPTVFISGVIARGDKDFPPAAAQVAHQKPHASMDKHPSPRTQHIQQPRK
UniProt Q9NV06: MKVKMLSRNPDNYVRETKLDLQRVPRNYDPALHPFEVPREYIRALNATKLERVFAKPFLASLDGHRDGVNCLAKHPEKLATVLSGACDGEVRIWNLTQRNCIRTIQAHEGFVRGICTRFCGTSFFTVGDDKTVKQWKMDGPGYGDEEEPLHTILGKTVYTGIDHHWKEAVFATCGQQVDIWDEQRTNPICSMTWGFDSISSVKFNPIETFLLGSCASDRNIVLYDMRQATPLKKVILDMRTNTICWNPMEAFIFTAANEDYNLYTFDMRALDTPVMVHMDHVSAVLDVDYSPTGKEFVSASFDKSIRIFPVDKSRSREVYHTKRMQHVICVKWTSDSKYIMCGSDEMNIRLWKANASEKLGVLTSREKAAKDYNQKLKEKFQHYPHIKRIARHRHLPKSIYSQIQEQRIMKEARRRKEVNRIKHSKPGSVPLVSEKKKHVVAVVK
UniProt Q6P3S1: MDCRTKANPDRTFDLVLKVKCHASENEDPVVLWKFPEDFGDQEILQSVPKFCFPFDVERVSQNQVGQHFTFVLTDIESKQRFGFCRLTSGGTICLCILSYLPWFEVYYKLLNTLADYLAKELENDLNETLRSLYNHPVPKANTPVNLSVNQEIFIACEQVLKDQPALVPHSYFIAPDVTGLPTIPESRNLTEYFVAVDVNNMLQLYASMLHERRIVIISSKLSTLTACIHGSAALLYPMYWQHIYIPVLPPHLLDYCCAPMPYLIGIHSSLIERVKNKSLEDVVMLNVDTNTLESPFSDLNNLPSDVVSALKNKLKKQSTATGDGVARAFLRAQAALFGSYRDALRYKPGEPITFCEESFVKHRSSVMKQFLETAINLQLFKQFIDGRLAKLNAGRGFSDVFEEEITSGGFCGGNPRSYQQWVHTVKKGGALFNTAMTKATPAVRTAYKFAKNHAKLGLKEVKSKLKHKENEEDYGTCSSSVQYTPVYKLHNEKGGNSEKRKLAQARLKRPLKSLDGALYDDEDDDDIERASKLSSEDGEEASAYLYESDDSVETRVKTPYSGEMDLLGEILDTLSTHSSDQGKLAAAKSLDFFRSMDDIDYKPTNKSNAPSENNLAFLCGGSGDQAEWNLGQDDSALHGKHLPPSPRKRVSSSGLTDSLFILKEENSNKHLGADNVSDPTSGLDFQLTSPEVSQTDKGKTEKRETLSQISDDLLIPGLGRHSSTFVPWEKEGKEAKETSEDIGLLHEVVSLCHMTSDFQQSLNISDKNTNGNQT
UniProt Q66K64, whole entry, looked up: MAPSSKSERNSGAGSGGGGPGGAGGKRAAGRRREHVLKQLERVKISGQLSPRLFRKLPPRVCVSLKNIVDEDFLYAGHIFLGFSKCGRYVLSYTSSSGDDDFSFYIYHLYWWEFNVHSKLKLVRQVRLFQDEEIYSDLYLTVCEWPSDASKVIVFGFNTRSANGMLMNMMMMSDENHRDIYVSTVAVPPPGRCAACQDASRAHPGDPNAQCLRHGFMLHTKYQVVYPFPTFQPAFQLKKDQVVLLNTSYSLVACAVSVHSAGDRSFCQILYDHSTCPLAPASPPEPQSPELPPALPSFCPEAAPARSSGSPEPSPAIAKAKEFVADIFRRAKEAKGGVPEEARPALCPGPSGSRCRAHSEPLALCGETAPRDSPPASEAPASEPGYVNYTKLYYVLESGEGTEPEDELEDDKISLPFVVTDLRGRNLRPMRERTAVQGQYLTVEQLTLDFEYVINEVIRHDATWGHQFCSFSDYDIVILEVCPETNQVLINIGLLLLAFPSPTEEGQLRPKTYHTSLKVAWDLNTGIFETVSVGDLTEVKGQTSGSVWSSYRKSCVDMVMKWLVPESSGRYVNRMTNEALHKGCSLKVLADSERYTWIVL
UniProt Q6PI48: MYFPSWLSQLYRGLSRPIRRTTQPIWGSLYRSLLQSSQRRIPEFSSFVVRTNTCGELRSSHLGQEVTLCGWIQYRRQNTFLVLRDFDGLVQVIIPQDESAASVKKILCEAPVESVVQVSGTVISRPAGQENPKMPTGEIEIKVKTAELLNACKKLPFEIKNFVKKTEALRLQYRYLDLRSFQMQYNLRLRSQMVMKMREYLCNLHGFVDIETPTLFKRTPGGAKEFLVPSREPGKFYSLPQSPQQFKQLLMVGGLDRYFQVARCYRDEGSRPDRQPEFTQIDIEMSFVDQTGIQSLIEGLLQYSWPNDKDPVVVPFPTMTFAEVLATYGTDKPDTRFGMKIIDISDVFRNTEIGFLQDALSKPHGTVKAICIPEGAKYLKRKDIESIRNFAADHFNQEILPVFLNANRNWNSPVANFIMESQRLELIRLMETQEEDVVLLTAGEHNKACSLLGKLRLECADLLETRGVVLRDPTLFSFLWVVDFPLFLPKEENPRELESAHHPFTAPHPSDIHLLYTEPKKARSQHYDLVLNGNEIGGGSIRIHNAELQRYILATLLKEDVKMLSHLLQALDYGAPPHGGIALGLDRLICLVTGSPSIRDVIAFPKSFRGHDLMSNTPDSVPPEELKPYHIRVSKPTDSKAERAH
UniProt Q14118: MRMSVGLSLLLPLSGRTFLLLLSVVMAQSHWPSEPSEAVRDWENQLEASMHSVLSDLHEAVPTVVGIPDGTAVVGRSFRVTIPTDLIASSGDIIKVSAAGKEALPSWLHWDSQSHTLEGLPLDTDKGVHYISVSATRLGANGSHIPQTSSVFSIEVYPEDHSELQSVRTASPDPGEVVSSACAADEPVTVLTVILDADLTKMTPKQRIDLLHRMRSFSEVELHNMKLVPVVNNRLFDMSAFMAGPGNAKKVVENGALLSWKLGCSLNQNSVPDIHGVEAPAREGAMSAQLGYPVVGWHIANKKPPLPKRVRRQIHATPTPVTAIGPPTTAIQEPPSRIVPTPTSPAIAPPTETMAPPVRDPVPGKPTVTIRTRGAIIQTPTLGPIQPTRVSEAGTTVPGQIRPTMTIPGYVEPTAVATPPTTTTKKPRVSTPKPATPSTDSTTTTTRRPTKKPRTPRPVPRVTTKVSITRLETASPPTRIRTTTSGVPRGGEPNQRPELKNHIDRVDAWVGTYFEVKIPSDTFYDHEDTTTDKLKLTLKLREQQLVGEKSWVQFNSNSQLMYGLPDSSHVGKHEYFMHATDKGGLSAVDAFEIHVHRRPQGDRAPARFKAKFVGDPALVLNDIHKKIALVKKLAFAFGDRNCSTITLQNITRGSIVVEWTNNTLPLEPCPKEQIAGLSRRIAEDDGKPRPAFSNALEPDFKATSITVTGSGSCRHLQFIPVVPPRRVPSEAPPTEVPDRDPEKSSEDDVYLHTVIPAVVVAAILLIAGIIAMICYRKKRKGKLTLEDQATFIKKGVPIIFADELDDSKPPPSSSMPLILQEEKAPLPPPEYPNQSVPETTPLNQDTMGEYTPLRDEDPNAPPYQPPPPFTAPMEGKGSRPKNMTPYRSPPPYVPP
UniProt Q9NUU7: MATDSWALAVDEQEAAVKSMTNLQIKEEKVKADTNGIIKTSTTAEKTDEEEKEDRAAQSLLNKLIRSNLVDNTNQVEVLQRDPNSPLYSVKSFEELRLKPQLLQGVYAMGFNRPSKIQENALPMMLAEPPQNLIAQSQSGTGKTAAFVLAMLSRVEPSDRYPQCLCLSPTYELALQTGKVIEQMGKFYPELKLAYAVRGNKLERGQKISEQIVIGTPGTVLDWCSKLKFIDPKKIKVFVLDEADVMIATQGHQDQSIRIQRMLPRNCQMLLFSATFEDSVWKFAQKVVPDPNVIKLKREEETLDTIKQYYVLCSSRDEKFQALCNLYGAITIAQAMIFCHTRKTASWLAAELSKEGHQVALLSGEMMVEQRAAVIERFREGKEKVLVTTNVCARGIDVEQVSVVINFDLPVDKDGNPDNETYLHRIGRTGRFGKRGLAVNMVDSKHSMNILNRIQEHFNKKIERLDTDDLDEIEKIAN

[1] = compound: CC(=O)c1cnc2ccc(-c3cc(Cl)c(O)c(Cl)c3)nc2c1N[C@H]1CC[C@H](CN(C)C)CC1
Procedure, shortened: as §1

ralimetinib = compound: CC(C)(C)Cn1c(N)nc2ccc(-c3[nH]c(C(C)(C)C)nc3-c3ccc(F)cc3)nc21 [ralimetinib]
Procedure, shortened: as §1

[2] = compound: CC(C)(O)CC(=O)NCCn1ccc2ncnc(Nc3ccc(Oc4cccc(C(F)(F)F)c4)c(Cl)c3)c21
Procedure, shortened: as §1

[3] = compound: CC(C)C1=C2N=C(C=C(N2N=C1)NCC3=CC=CC=C3)NCCCCCCN
Procedure, shortened: as §1

[4] = compound: CC1=C(C(CC(=O)N1)C2=CC=C(C=C2)C(F)(F)F)C(=O)NC3=C(C=C4C(=C3)C=NN4)F
Procedure, shortened: as §1

[5] = compound: CC1=C(C2=C(C=C1)C(=O)C3=CC=CC=C3N2CCCN)C
Procedure, shortened: as §1

[6] = compound: CC1=C(C=C(C=C1)NC(=O)C2=CC(=CC=C2)C(C)(C)C#N)NC3=CC4=C(C=C3)N=CN(C4=O)C
Procedure, shortened: as §1

[7] = compound: CC1=C(C=C(C=C1)NC(=O)C2=CC(=CC=C2)N(C)C)NC(=O)C3=CC=C(C=C3)O
Procedure, shortened: as §1

[8] = compound: CC1=CC=C(C=C1)SC2=C3C=C(SC3=CN=C2)C(=O)N
Procedure, shortened: as §1

Measured: log2 fold change

DBN1 (UniProt Q16643)
inactive: ibrutinib 0.008 | [1] -0.007 | ralimetinib 0.006 | [2] -0.029 | [3] 0.009 | [4] 0.018 | [5] 0.012 | [6] 0.029 | [7] 0.003 | [8] -0.03

DDX3X (UniProt O00571)
inactive: ibrutinib -0.01 | [1] 0.021 | ralimetinib -0.048 | [2] -0.03 | [3] -0.016 | [4] 0.016 | [5] -0.023 | [6] 0.011 | [7] 0.038 | [8] 0.044

DDX17 (UniProt Q92841)
inactive: ibrutinib 0.011 | [1] 0 | ralimetinib -0.046 | [2] 0.035 | [3] 0.018 | [4] -0.011 | [5] 0.022 | [6] 0.008 | [7] -0.027 | [8] 0.023

DDX31 (UniProt Q9H8H2)
inactive: ibrutinib 0.045 | [1] -0.023 | ralimetinib -0.007 | [2] 0.019 | [3] -0.061 | [4] -0.012 | [5] 0.023 | [6] 0.034 | [7] 0.109 | [8] 0.001

DCAF4L2 (UniProt Q8NA75)
inactive: ibrutinib -0.116 | [1] -0.176 | ralimetinib 0.012 | [2] -0.011 | [3] -0.054 | [4] 0.058 | [5] -0.019 | [6] -0.021 | [7] -0.042 | [8] 0.088

DDX42 (UniProt Q86XP3)
inactive: ibrutinib 0.04 | [1] 0.004 | ralimetinib -0.027 | [2] 0.018 | [3] 0.029 | [4] -0.003 | [5] 0.036 | [6] 0.022 | [7] -0.002 | [8] -0.008

DERA (UniProt Q9Y315)
inactive: ibrutinib -0.011 | [1] 0.008 | ralimetinib 0.008 | [2] -0.032 | [3] 0.013 | [4] -0.01 | [5] -0.037 | [6] 0.033 | [7] -0.008 | [8] -0.017

DDAH2 (UniProt O95865)
inactive: ibrutinib 0.018 | [1] -0.023 | ralimetinib -0.004 | [2] -0.005 | [3] 0.002 | [4] -0.054 | [5] -0.019 | [6] -0.003 | [7] -0.046 | [8] 0.007

DAP (UniProt P51397)
inactive: ibrutinib 0.162 | [1] -0.002 | ralimetinib 0.001 | [2] -0.034 | [3] 0.001 | [4] 0.037 | [5] -0.039 | [6] 0.017 | [7] -0.004 | [8] -0.024

DAGLB (UniProt Q8NCG7)
inactive: ibrutinib -0.015 | [1] -0.011 | ralimetinib 0.009 | [2] -0.006 | [3] -0.015 | [4] 0 | [5] 0.036 | [6] -0.023 | [7] 0.015 | [8] 0.012

DCAF7 (UniProt P61962)
inactive: ibrutinib -0.025 | [1] 0.084 | ralimetinib -0.022 | [2] -0.02 | [3] -0.013 | [4] -0.002 | [5] 0.006 | [6] -0.031 | [7] 0.008 | [8] 0.016

2 successive entries already listed, quoted:
DCAF4L2 (UniProt Q8NA75)
inactive: ibrutinib -0.116 | [1] -0.176 | ralimetinib 0.012 | [2] -0.011 | [3] -0.054 | [4] 0.058 | [5] -0.019 | [6] -0.021 | [7] -0.042 | [8] 0.088

DDX42 (UniProt Q86XP3)
inactive: ibrutinib 0.04 | [1] 0.004 | ralimetinib -0.027 | [2] 0.018 | [3] 0.029 | [4] -0.003 | [5] 0.036 | [6] 0.022 | [7] -0.002 | [8] -0.008

Next part

DENR (UniProt O43583)
inactive: ibrutinib 0.01 | [1] -0.002 | ralimetinib -0.035 | [2] 0.024 | [3] -0.045 | [4] -0.046 | [5] -0.004 | [6] -0.021 | [7] 0.005 | [8] 0.001

DCAF13 (UniProt Q9NV06)
inactive: ibrutinib 0.042 | [1] -0.034 | ralimetinib -0.044 | [2] 0.021 | [3] -0.05 | [4] -0.02 | [5] -0.031 | [6] 0.014 | [7] 0.026 | [8] 0.002

DENND1B (UniProt Q6P3S1)
inactive: ibrutinib 0.405 | [1] -0.034 | ralimetinib -0.039 | [2] -0.114 | [3] -0.087 | [4] 0.151 | [5] 0.174 | [6] 0.031 | [7] -0.003 | [8] 0.011

DERL1 (UniProt Q9BUN8)
inactive: ibrutinib 0.013 | [1] -0.01 | ralimetinib -0.077 | [2] -0.072 | [3] -0.022 | [4] 0.041 | [5] -0.003 | [6] -0.01 | [7] 0.05 | [8] 0.036

DDX49 (UniProt Q9Y6V7)
inactive: ibrutinib 0.009 | [1] -0.005 | ralimetinib -0.015 | [2] -0.036 | [3] 0.038 | [4] -0.046 | [5] -0.191 | [6] 0.099 | [7] 0.034 | [8] 0.022

D2HGDH (UniProt Q8N465)
inactive: ibrutinib -0.055 | [1] -0.02 | ralimetinib -0.025 | [2] -0.009 | [3] 0.008 | [4] 0.03 | [5] -0.037 | [6] 0.057 | [7] -0.008 | [8] -0.045

DCTN2 (UniProt Q13561)
inactive: ibrutinib -0.005 | [1] 0.031 | ralimetinib 0.105 | [2] -0.001 | [3] -0.115 | [4] -0.193 | [5] -0.02 | [6] -0.37 | [7] 0 | [8] -0.127

DCAF16 (UniProt Q9NXF7)
inactive: ibrutinib -0.005 | [1] -0.03 | ralimetinib -0.021 | [2] 0.001 | [3] 0.026 | [4] -0.016 | [5] -0.016 | [6] 0.041 | [7] -0.04 | [8] -0.014

DCAF15 (UniProt Q66K64)
inactive: ibrutinib 0.037 | [1] -0.021 | ralimetinib -0.045 | [2] -0.047 | [3] -0.089 | [4] 0.011 | [5] -0.148 | [6] -0.06 | [7] 0.014 | [8] 0.015

DARS2 (UniProt Q6PI48)
inactive: ibrutinib 0.003 | [1] -0.006 | ralimetinib 0.048 | [2] 0.024 | [3] 0.014 | [4] -0.008 | [5] -0.03 | [6] -0.035 | [7] 0.035 | [8] -0.002

DDX19B (UniProt Q9UMR2)
inactive: ibrutinib -0.02 | [1] 0.002 | ralimetinib 0.018 | [2] -0.026 | [3] -0.009 | [4] -0.009 | [5] -0.02 | [6] 0.018 | [7] 0.017 | [8] 0.004

DDX27 (UniProt Q96GQ7)
inactive: ibrutinib 0.039 | [1] 0.01 | ralimetinib 0.033 | [2] -0.016 | [3] 0.014 | [4] -0.032 | [5] -0.049 | [6] 0.024 | [7] 0.019 | [8] 0.027

DDX52 (UniProt Q9Y2R4)
inactive: ibrutinib 0.09 | [1] 0.025 | ralimetinib 0.034 | [2] 0.057 | [3] -0.053 | [4] 0.012 | [5] 0.018 | [6] 0.17 | [7] -0.057 | [8] 0.021

DAG1 (UniProt Q14118)
inactive: ibrutinib 0.085 | [1] -0.001 | ralimetinib -0.053 | [2] -0.055 | [3] -0.011 | [4] -0.012 | [5] 0 | [6] -0.03 | [7] 0.022 | [8] -0.018

DDX19A (UniProt Q9NUU7)
inactive: ibrutinib -0.021 | [1] 0.003 | ralimetinib 0.032 | [2] -0.01 | [3] 0.016 | [4] 0.021 | [5] 0.013 | [6] 0.027 | [7] -0.015 | [8] -0.018

DENND4A isoform 2 (UniProt Q7Z401)
inactive: ibrutinib 0 | [1] -0.089 | ralimetinib 0.018 | [2] -0.028 | [3] 0.017 | [4] 0.006 | [5] 0.026 | [6] 0.029 | [7] 0.023 | [8] -0.009
